Counter-ions that a name gives are not always drawn. This is one part of the list. Repeats in this data set agree poorly, so a single value says little.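 In a drug-repurposing library screen, luminescence reads luciferase driven by eight TEAD-binding elements, stably integrated into human kidney-derived cells. Compounds scoring over five robust Z scores above the plate mean are called hits.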
Tested on: HEK293A TEAD-LUC reporter
Assay: TEAD-luciferase reporter activity (YAP activation), robust Z score vs plate; higher = stronger YAP/TEAD activation
Conditions: 24 h

Structure (SMILES)	TEAD-luciferase reporter activity (compound concentration: 200 nM)	TEAD-luciferase reporter activity (compound concentration: 2 uM)	TEAD-luciferase reporter activity (compound concentration: 10 uM)
Oc1ccc(Cl)c2cccnc12	inactive: -0.961	inactive: 3.4	inactive: -0.647
Cc1ccccc1OCC(=O)N[C@@H](CC(C)C)C(=O)N[C@@H](Cc1ccc(OC(=O)N2CCC(C(N)=O)CC2)cc1)C(=O)O	inactive: -0.0407	inactive: -1.53	inactive: 2.68
CC1=C(C(=O)OCCN2C(=O)c3ccccc3S2(=O)=O)C(c2cccc([N+](=O)[O-])c2)C(C(=O)OCC2CCCCO2)=C(C)N1 (stereo unspecified)	inactive: -2.17	inactive: -0.916	inactive: 1.78
O=[N+]([O-])c1ccc(NC(=S)N2CCN(c3ccccc3F)CC2)cc1	inactive: -0.192	inactive: -0.198	inactive: -2.07
Cc1ccccc1Nc1ccccc1C(=O)N1CCCCC1	inactive: -0.953	inactive: -0.82	inactive: 0.468
CC#CC(C)Oc1cc(N)c(Cl)cc1C(=O)NC1C[C@H]2CC[C@@H](C1)N2C (stereo partly specified)	inactive: -1.92	inactive: -0.411	inactive: 0.472
N#Cc1ccc(COC[C@H]2O[C@@H](n3c(NCc4ccc(Cl)c(Cl)c4)nc4c(N)ncnc43)[C@H](O)[C@@H]2O)cc1	inactive: -1.41	inactive: -0.0434	inactive: -1.15
CC(=O)Nc1ccc(/C=N/NC(N)=S)cc1F	active: 5.19	inactive: 0.253	inactive: 0.788
COCCOC(=O)C(C#N)=Cc1ccc(N2CCCCC2)cc1	inactive: -1.18	inactive: 2.63	inactive: 4.81
Nc1ncn([C@H]2C[C@H](OP(=O)(O)OC[C@H]3O[C@@H](n4cnc5c(=O)nc(N)[nH]c54)C[C@@H]3O)[C@@H](CO)O2)c(=O)n1 [Guadecitabine sodium]	inactive: 0.451		inactive: 0.808
CC(C)(C)[C@@H]1NC(=O)O[C@@H]2CCC[C@H]2OC/C=C/C(F)(F)c2nc3ccccc3nc2O[C@@H]2C[C@@H](C(=O)N[C@]3(C(=O)NS(=O)(=O)C4(C)CC4)C[C@H]3C(F)F)N(C2)C1=O [Glecaprevir]	inactive: -0.534	inactive: -0.874	inactive: -0.0851
CN(CC(O)CO)C(=O)c1c(I)c(NC(=O)C(CO)CO)c(I)c(C(=O)N(C)CC(O)CO)c1I (stereo unspecified) [Iobitridol]	inactive: -0.493	inactive: -0.824	inactive: -0.272
Cc1c(-c2cnccn2)ssc1=S [oltipraz]	inactive: 0.173	inactive: 3.47	inactive: -1.57
CO/N=C(\C(=O)N[C@@H]1C(=O)N2C(C(=O)O)=C(C[n+]3ccc(N)n3CCO)CS[C@H]12)c1csc(N)n1 [Cefoselis sulfate]	inactive: 0.0492	inactive: -0.26	inactive: 0.271
CCOc1ccc2c(c1)O/C(=C\c1ccc(OC)c(OC)c1OC)C2=O	inactive: 0.498	inactive: 0.831	inactive: 0.754
CC[C@H]1OC(=O)[C@H](C)C(=O)[C@H](C)[C@@H](O[C@@H]2O[C@H](C)C[C@H](N(C)C)[C@H]2O)[C@](C)(OC)C[C@@H](C)C(=O)[C@H](C)[C@H]2N(C3CN(Cc4c(O)cnc5cccnc45)C3)C(=O)O[C@]12C	inactive: -1.54	inactive: 0.888	inactive: -1.14
NCC(=O)N[C@@H](CCC(N)=O)C(=O)O	inactive: -0.158	inactive: -1.45	inactive: 1.42
NCCCCCCN [Hexamethylenediamine]	inactive: -0.607		inactive: -0.383
CCC(=O)NC[C@H]1CN(c2ccc([C@H]3CC[S@+]([O-])CC3)c(F)c2)C(=O)O1	inactive: -0.6	inactive: 0.0802	inactive: -0.978
COc1cc([C@@H]2c3cc4c(cc3[C@@H](O[C@@H]3O[C@@H]5CO[C@@H](C)O[C@H]5[C@H](O)[C@H]3O)[C@H]3COC(=O)[C@H]23)OCO4)cc(OC)c1OP(=O)(O)O [Etoposide phosphate]	inactive: -0.71	inactive: 2.86	inactive: -1.1
CC(C)(C)c1ccc(O)c(/C(=N/O)c2ccccc2)c1	inactive: 0.688	inactive: 1.38	inactive: -0.341
CCCCCCCCCC(=O)OC1(c2ccc(Cl)cc2)CCN(CCCC(=O)c2ccc(F)cc2)CC1 [Haloperidol decanoate]	inactive: -1.74	inactive: -0.793	inactive: 1.59
C[C@@H]1CN(Cc2ncccn2)C[C@H]1c1nc2c(cnn2C2CCOCC2)c(=O)[nH]1	inactive: 0.015	inactive: -1.3	inactive: -1.18
O=C1NNc2nc(CN3Cc4ccccc4C3)nc3cccc1c23	inactive: -1.69	inactive: -2.19	inactive: -0.941
CN1C=CCC(C(=O)O[C@@H]2CC[C@H]3[C@@H]4CCc5cc(O)ccc5[C@H]4CC[C@@]23C)=C1	inactive: -0.879	inactive: 1.66	inactive: 3.04

Structure (SMILES)	TEAD-luciferase reporter activity (compound concentration: 200 nM)	TEAD-luciferase reporter activity (compound concentration: 2 uM)	TEAD-luciferase reporter activity (compound concentration: 10 uM)
O[C@@H]1[C@@H](O)[C@@H](O)O[C@@H]2COC(c3ccccc3)O[C@H]12 (stereo partly specified)	inactive: 0.743	inactive: 3.39	inactive: 1.61
O=C(c1ccc(F)cc1)C1CCN(CCCn2c(=O)[nH]c3cc(Cl)ccc32)CC1 [Milenperone]	inactive: 0.595	inactive: -1.32	inactive: -1.23
COC(=O)c1cccnc1 [Methyl nicotinate]	inactive: 0.814	inactive: -1.16	inactive: 0.734
C=C(C)[C@@H]1CC[C@]2(C(=O)OCC(N)(CO)CO)CC[C@]3(C)[C@H](CC[C@@H]4[C@@]5(C)CC[C@H](OC(C)=O)C(C)(C)[C@@H]5CC[C@]43C)[C@@H]12	inactive: -2.41	inactive: 1.27	inactive: 0.0998
CC1(C)CCC[C@](C)([C@H]2CC[C@]3(C)[C@@H]2[C@H](O)C[C@@H]2[C@@]4(C)CC[C@H](O)C(C)(C)[C@@H]4[C@H](O)C[C@]23C)O1	inactive: -1.14	inactive: 0.402	inactive: -2.76
C[C@H](CCC(=O)O)[C@H]1CC[C@H]2[C@@H]3[C@@H](OS(=O)(=O)O)C[C@@H]4C[C@H](OS(=O)(=O)O)CC[C@]4(C)[C@H]3CC[C@]12C [Ursulcholic acid]	inactive: 0.191	inactive: 1.42	inactive: -0.675
COc1cc(Nc2c(C#N)cnc3cc(OCCCN4CCN(C)CC4)c(OC)cc23)c(Cl)cc1Cl [Bosutinib]	inactive: -3.27	inactive: -2.64	inactive: -3.22
N#Cc1ccc(N(Cc2ccc(Br)cc2)n2cnnc2)cc1	active: 10.9	inactive: -1.2	inactive: -0.921
CN(C)CCOC(=O)NCCCCNC(=O)OCCN(C)C	inactive: -1.39	inactive: -0.173	inactive: 2.4
O=C1CCC(N2C(=O)c3cccc(CNC(=O)C4CC4)c3C2=O)C(=O)N1 (stereo unspecified)	inactive: -0.984	inactive: 0.0354	inactive: -0.95
COc1cc(C2Oc3cc(C4Oc5cc(OC(C)=O)cc(OC(C)=O)c5C(=O)C4OC(C)=O)ccc3OC2COC(C)=O)ccc1OC(C)=O (stereo unspecified)	inactive: -0.255	inactive: -1.02	inactive: 4.04
CC(S)C(=O)NCC(=O)O (stereo unspecified) [tiopronin]	inactive: -1.05	inactive: -0.71	active: 6.16
O=C(CCCN1CCN(c2cc3ccccc3cn2)CC1)c1ccc(F)cc1 [cinuperone]	inactive: 3.05	inactive: -0.627	inactive: 2.66
O=C(O)CC[C@H](NC(=O)[C@@H]1CC[C@@H](Oc2ccc(C(=O)c3ccccc3)c(Cl)c2Cl)C1)C(=O)O	inactive: -1.89		inactive: -0.904
Cn1nc(CO)nc1NCCCOc1cccc(CN2CCCCC2)c1	inactive: -0.759	inactive: -1.25	inactive: -0.497
COCC1=C(C(=O)OC(C)OC(=O)C(C)(C)C)N2C(=O)[C@@H](NC(=O)/C(=N\O)c3csc(N)n3)[C@H]2SC1 (stereo partly specified) [cefdaloxime pentexil]	inactive: 2.66	inactive: -0.849	inactive: 0.828
O=C(c1ccc(F)cc1)C1CCN(CCn2c(=S)[nH]c3ccccc3c2=O)CC1 [altanserin]		inactive: -1.26	
O=C(c1ccc(F)cc1)C1CCN(CCn2c(=S)[nH]c3ccccc3c2=O)CC1 [Altanserin]	inactive: -0.677		inactive: -0.415
Nc1nc(=O)n([C@@H]2O[C@H](CO)[C@@H](O)[C@@H]2F)cc1I [FIAC, Pharmos]	inactive: 2.77	inactive: -0.103	inactive: 4.43
CC1=C(C(=O)OC(C)C)C(c2ccc3c(c2)OCO3)C(C(=O)OC(C)C)=C(C)N1	inactive: -3.52	inactive: -0.804	inactive: -0.752
CO/N=C(/C(=O)NC1C(=O)N2C(C(=O)OCOC(=O)C(C)(C)C)=C(Cn3nnc(C)n3)CS[C@H]12)c1csc(N)n1 (stereo partly specified) [Cefteram Pivoxil]	inactive: -0.867	inactive: -1.68	inactive: 0.112
CN(C)CCON=C1c2ccccc2CCc2ccccc21	inactive: -0.207	inactive: 1.93	inactive: 1.69
N#CN=c1scnn1C1OC(CO)C(O)C1O (stereo unspecified)	inactive: -1.06	inactive: -1.22	inactive: -0.0091
Oc1c(Cl)cc(Cl)c2cccnc12 [Chloroxine]	inactive: -0.896		inactive: -0.0774
Oc1c(Cl)cc(Cl)c2cccnc12		inactive: 0.0733	

Looked up above.
TEAD-luciferase reporter activity (compound concentration: 10 uM), C[C@@H]1CN(Cc2ncccn2)C[C@H]1c1nc2c(cnn2C2CCOCC2)c(=O)[nH]1 reads inactive: -1.18
TEAD-luciferase reporter activity (compound concentration: 200 nM), O=C(O)CC[C@H](NC(=O)[C@@H]1CC[C@@H](Oc2ccc(C(=O)c3ccccc3)c(Cl)c2Cl)C1)C(=O)O reads inactive: -1.89
